Assay [1] concerns the target T1, mouse Neogenin expressed on COS-7 cells (mouse), P97798.
T1 chain: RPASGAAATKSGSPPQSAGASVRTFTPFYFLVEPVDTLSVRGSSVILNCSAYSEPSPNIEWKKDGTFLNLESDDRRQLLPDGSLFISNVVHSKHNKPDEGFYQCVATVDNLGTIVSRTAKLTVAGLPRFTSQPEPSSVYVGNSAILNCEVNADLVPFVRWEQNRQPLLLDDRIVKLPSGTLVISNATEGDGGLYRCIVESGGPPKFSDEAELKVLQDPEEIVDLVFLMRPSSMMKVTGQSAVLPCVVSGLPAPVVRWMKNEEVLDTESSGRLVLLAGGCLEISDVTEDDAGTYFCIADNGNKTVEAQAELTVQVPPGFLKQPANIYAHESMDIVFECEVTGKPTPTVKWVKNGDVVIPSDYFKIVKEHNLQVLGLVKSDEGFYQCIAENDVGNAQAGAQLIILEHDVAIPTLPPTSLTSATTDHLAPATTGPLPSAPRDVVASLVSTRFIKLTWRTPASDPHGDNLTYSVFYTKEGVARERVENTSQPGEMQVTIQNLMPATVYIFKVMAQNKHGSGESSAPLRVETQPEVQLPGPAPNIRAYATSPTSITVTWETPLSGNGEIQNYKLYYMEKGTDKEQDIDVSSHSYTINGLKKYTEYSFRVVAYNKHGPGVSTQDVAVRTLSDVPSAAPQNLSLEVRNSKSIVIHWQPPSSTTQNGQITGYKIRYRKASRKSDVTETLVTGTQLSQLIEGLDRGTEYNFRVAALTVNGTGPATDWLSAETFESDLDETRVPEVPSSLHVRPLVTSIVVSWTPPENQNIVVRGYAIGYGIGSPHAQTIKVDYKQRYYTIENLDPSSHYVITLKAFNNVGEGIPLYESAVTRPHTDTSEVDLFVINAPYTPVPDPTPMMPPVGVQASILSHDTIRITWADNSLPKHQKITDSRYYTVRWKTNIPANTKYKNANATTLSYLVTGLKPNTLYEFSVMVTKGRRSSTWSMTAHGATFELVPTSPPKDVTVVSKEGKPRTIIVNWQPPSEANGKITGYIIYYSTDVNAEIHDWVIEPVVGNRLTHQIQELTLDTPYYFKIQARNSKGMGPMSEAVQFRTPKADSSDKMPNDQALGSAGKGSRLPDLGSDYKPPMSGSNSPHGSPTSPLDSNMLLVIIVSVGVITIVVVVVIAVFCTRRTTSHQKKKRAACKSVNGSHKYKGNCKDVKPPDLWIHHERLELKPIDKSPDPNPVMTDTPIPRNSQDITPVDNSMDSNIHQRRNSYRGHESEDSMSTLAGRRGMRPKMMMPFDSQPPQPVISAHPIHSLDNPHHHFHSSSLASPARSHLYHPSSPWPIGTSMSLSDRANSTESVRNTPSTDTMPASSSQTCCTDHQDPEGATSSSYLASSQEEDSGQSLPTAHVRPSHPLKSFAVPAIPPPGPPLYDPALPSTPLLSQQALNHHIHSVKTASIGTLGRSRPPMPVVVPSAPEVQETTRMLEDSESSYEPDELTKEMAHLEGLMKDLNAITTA
Kind of assay: AP fusion binding to Neogenin-expressing cells. Conditions: remark: other sources report otherwise.

The target in assay [2] is mouse Neogenin expressed on COS-7 cells (mouse) (UniProt P97798). Kind of assay: AP fusion binding to Neogenin-expressing cells.

No constants are given. Whether binding was seen depends on the method and setting. Some binding calls cover weakened binding; strength is not graded here.

B1: Mouse RGM-B-AP, Q7TQ33 49-415 (ligand, UniProt Q7TQ33 49-415, looked up, not shown: large carriers; small tags and cut ends)
chain: GDCQQPTQCRIQKCTTDFVALTAHLNSAADGFDSEFCKALRAYAGCTQRTSKACRGNLVYHSAVLGISDLMSQRNCSKDGPTSSTNPEVTHDPCNYHSHGGVREHGGGDQRPPNYLFCGLFGDPHLRTFKDHFQTCKVEGAWPLIDNNYLSVQVTNVPVVPGSSATATNKVTIIFKAQHECTDQKVYQAVTDDLPAAFVDGTTSGGDGDVKSLHIVEKESGRYVEMHARYIGTTVFVRQLGRYLTLAIRMPEDLAMSYEESQDLQLCVNGCPMSECIDDGQGQVSAILGHSLPHTTSVQAWPGYTLETASTQCHEKMPVKDIYFQSCVFDLLTTGDANFTAAAHSALEDVEALHPRKERWHIFPSSC
Take B1: the binding result in assay [1] was “binds”.

B2: Mouse RGM-A-AP (ligand, UniProt Q6PCX7 48-427, looked up, not shown: large carriers; small tags and cut ends)
chain: CKILKCNSEFWSATSSGSHAPASDDVPEFCAALRTYALCTRRTARTCRGDLAYHSAVHGIEDLMSQHNCSKDGPTSQPRVRTLPPAGDSQERSDSPEICHYEKSFHKHSAAPNYTHCGLFGDPHLRTFTDHFQTCKVQGAWPLIDNNYLNVQVTNTPVLPGSAATATSKLTIIFKNFQECVDQKVYQAEMDELPSAFADGSKNGGDKHGANSLKITEKVSGQHVEIQAKYIGTTIVVRQVGRYLTFAVRMPEEVVNAVEDRDSQGLYLCLRGCPLNQQIDFQAFRANAESPRRPAAASPSPVVPETFPYETAVAKCKEKLPVEDLYYQACVFDLLTTGDVNFTLAAYYALEDGKMLHSNKDKLHLFERTRELPGAVAAAA
For the molecule B2, in assay [2], the binding entry was “binds”.

The values are drawn from patent publication US20130101605A1.
